Patent US20210338708A1, “METHOD FOR TREATMENT OF CORONAVIRUS INFECTION” (Renibus Therapeutics, Inc., priority 2020, published 2021)

Test system: SARS-CoV-2
Assay: microbe, parasite or virus in culture
Assay type: cell-based, SARS-CoV-2 (2019-nCoV/USA-WA1/2020 strain)
Conditions: Severe acute respiratory syndrome coronavirus 2, Vero C1008; Condition 2, drug treatment after virus exposure; Vero E6; non-linear regression; read-out: EC50, SARS-CoV-2 replication

Compound: CCC(CC)COC(=O)[C@H](C)N[P@](=O)(OC[C@H]1O[C@@](C#N)(c2ccc3c(N)ncnn23)[C@H](O)[C@@H]1O)Oc1ccccc1 [Remdesivir, reference compound]
- EC50: 1760 nM
